Measurements: PubChem BioAssay AID493014 (National Center for Advancing Translational Sciences (NCATS), 2011)
The whole screen tested about 340,000 compounds, of which about 170 (0.05%) were called active. The shares of active, inactive and inconclusive entries below differ from those in the screen. Calls follow the shape of the dose curve; as a rule, active = well fitted inhibition curve with a large enough effect in the signal ratio, with a control signal flat (not every such curve was filed as active); inconclusive = small, poorly fitted or top-dose-only effect, or effect the other way, or a change in a side signal; inactive = flat fitted curve, though single readings scatter; the % refers to the signal ratio. A potency beside an inconclusive call is a rough fit, not a confirmed value.
Potency is read from the fitted curve at half-maximal effect.

Assay: qHTS Assay to Find Inhibitors of Chronic Active B-Cell Receptor Signaling;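 as to activity change, negative = inhibition: plate controls were basal doxycycline-induced cells for no effect and cells given 10 µM MG132 for full effect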
Settings: ABC-DLBCL IkBa-CBG/CBR reporter, luminescence ratio (green luciferase fused to IkBa over red control in TMD8 lymphoma cells), 4 h; activity change, negative = inhibition: at 46.1 µM (top of the series)
In short: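 TMD8 human ABC-DLBCL cells with doxycycline-inducible IκBα–green luciferase fusion and unfused red luciferase, in 0.5% FBS medium; compounds up to 46 uM, 4 h at 37C. Green/red luminescence ratio, filter-overlap corrected, fitted to concentration-response curves.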
With `Cc1cc(C)c2c(N)c(C(=O)Nc3ccc([N+](=O)[O-])cc3)sc2n1` the activity change, negative = inhibition was inconclusive: 3.97%. For `CS(=O)(=O)c1ccccc1-c1nnc(NC(=O)c2ccc(S(=O)(=O)N3CCCC3)cc2)o1`, the activity change, negative = inhibition was inconclusive: -16.1%. In the case of `O=C(NNC(=O)c1ccccc1O)c1ccc(Br)cc1`, the Potency is reported as inconclusive: 5.01 µM [falling, partial curve]. In the case of `Cc1ccc(NC(=O)c2cnc(SCC(=O)N3CCCc4ccccc43)n(C)c2=O)cc1C`, the activity change, negative = inhibition is reported as inconclusive: 19.3%. For `O=C(NCc1cccs1)c1nn2cccnc2c1Cl`, the activity change, negative = inhibition was inconclusive: 18%. With `O=C(CC1C(=O)N(Cc2ccccc2)C(=S)N1CCN1CCOCC1)Nc1ccc(F)cc1` (stereo not given) the activity change, negative = inhibition was inconclusive: 1.14%. With `CNC[C@H](Cc1cccc2ccccc12)NC[C@H](CCSC)NCC1CCC(C(C)(C)C)CC1` (stereo not given in full) the activity change, negative = inhibition was “inactive”. In the case of `CC(=O)Nc1cccc(C(=O)OCC(=O)N(c2ccccc2)C2CCS(=O)(=O)C2)c1` (stereo not given), the Potency is reported as inconclusive: 13 µM [falling, partial curve]. With `COC(=O)c1ccc(Cn2c(C)cc(C)[n+]2C)o1` the activity change, negative = inhibition was inconclusive: -8.24%. In the case of `CCOC(=O)CN(C)Cc1c[nH]c2ccccc12`, the activity change, negative = inhibition is reported as inconclusive: 10.2%. In the case of `COc1ccc(S(=O)(=O)N2CCC[C@H]2C(=O)NCc2ccc(Cl)cc2)cc1`, the activity change, negative = inhibition is reported as inconclusive: 0.0196%. With `O=C(NC1CCN(C(=O)c2ccccc2Br)CC1)c1ccccc1` the activity change, negative = inhibition was inconclusive: -0.214%. For `Cc1cc(C)cc(-n2ncc3c2CCCC3NC(=O)C2CCC2)c1` (stereo not given), the activity change, negative = inhibition was inconclusive: 12.7%. For `CCCCc1ccc(NC(=O)CN2NS(=O)(=O)c3ccccc3C2=O)cc1`, the Potency was inconclusive: 0.0326 µM [falling, full curve, poor fit]. In the case of `C=CCn1c(-c2ccc(OC)cc2)csc1=Nc1c(C)n(C)n(-c2ccccc2)c1=O`, the activity change, negative = inhibition is reported as inconclusive: 0.72%. For `NC(=S)N/N=C/c1cn(CCC(=O)O)nc1-c1cccc(Br)c1`, the activity change, negative = inhibition was inconclusive: 9.06%. With `CCOc1ccccc1NC(=O)Cn1nnc(C(=O)NCCc2ccc(OCC)c(OCC)c2)c1N` the activity change, negative = inhibition was inconclusive: -2.11%. With `O=C(O)/C=C/c1coc2ccccc2c1=O` the Potency was inconclusive: 16.4 µM [falling, partial curve]. For `CCCn1c(CNc2ccccc2O)nc2ccccc21`, the Potency was inconclusive: 20.6 µM [falling, partial curve]. In the case of `Cc1cc(N2CCC(C(=O)NC3CCCCC3)CC2)nc(-c2ccccc2)n1`, the activity change, negative = inhibition is reported as inconclusive: 14.7%. For `CC1CCCN(C(=O)Cc2cn(Cc3cccc(Cl)c3)c3ccccc23)C1` (stereo not given), the activity change, negative = inhibition was inconclusive: -2.96%. In the case of `Cc1ccccc1OCc1nc(-c2cccnc2)no1`, the activity change, negative = inhibition is reported as inconclusive: -7.18%. With `O=C(O)/C=C\C(=O)Nc1ccc(OCc2ccccc2)cc1` the activity change, negative = inhibition was inconclusive: -18.8%. For `CN(C)c1ccc(N=Cc2nc(-c3ccccc3)oc2OC(=O)c2cccc(Br)c2)cc1`, the Potency was inconclusive: 18.4 µM [falling, partial curve]. For `Cc1cccc2sc(N(CCCN(C)C)C(=O)c3sc4ccccc4c3Cl)nc12`, the activity change, negative = inhibition was inconclusive: -20.1%. In the case of `c1ccc(N2CC3CCc4ccccc4C3=N2)cc1` (stereo not given), the activity change, negative = inhibition is reported as inconclusive: 4.7%. For `CCOc1ccc(-c2nnc(-c3ccccc3)n2-c2ccccc2)cc1`, the activity change, negative = inhibition was inconclusive: -2.12%. With `CCOC(=O)C(C(C)=O)c1nc(C)nc2c1nnn2Cc1ccccc1Cl` (stereo not given) the Potency was inconclusive: 0.92 µM [rising, full curve]. With `CN(CC(=O)Nc1ccc(Cl)c(Cl)c1)C(=O)CNC(=O)Cc1ccccc1` the activity change, negative = inhibition was inconclusive: 13.5%. With `CCn1c(SCC(=O)c2cc(OC)ccc2OC)nnc1C1CC1` the Potency was inconclusive: 10 µM [falling, partial curve, poor fit]. With `Cc1ccc(NC(=O)COC(=O)CN2C(=O)C3CCCCC3C2=O)cc1S(=O)(=O)N1CCOCC1` (stereo not given) the activity change, negative = inhibition was inconclusive: -1.07%. For `CN(C)c1ccc(/C=N/NC(=O)c2ccccc2)cc1`, the activity change, negative = inhibition was inconclusive: 224%. In the case of `COc1cc(NC2c3ccccc3C(=O)N2Cc2ccc3c(c2)OCO3)cc(OC)c1OC` (stereo not given), the activity change, negative = inhibition is reported as inconclusive: 8.52%. For `CC1(C)C(=O)Nc2ccccc2N1C(=O)Cn1ncc(Cl)c(Cl)c1=O`, the Potency was inconclusive: 2.82 µM [rising, partial curve, poor fit]. In the case of `CS(=O)(=O)N1CCC(Oc2ccccc2C(=O)NC(C2CC2)C2CC2)CC1`, the activity change, negative = inhibition is reported as inconclusive: 0.867%. For `O=C(c1ccccc1)N1CCC(c2nc3c(nnn3Cc3ccccc3Cl)c(=O)[nH]2)CC1`, the activity change, negative = inhibition was inconclusive: 0.944%. For `Cc1cc(/C=C2\SC(=Nc3ccccc3)NC2=O)c(C)n1-c1ccc(S(N)(=O)=O)cc1`, the Potency was inconclusive: 14.1 µM [falling, partial curve, poor fit]. For `C=CCn1ccc2c([N+](=O)[O-])cccc2c1=O`, the Potency was inconclusive: 11.2 µM [falling, partial curve, poor fit]. With `O=C(NNC(=S)Nc1ccccc1)c1ccco1` the activity change, negative = inhibition was inconclusive: 276%. In the case of `O=C(COC(=O)CCCN1C(=O)c2ccccc2C1=O)Nc1ncc(Cl)cc1Cl`, the Potency is reported as inconclusive: 4.47 µM [rising, partial curve, poor fit]. In the case of `CC(=C\c1ccco1)/C=C(\C#N)C(=O)NCCc1c[nH]c2ccccc12`, the Potency is reported as inconclusive: 0.651 µM [rising, full curve]. For `CCOc1ccc(CNC(=O)c2ccc(Sc3ccc(C)cc3)c(N)c2)cc1OC`, the activity change, negative = inhibition was inconclusive: -3.21%. With `CC(C)(C)c1ccc(NC(=O)C2=CC=CN3CCS(=O)(=O)N=C23)cc1` the activity change, negative = inhibition was inconclusive: 8.83%. For `Cc1nn(C)cc1C1C(C#N)=C(N)N(c2ccc(F)c([N+](=O)[O-])c2)C2=C1C(=O)CCC2` (stereo not given), the Potency was inconclusive: 20.6 µM [falling, single point]. With `O=C(O)CN1C(=O)/C(=C\c2cccc(OCc3ccc(Cl)cc3Cl)c2)SC1=S` the activity change, negative = inhibition was “inactive”. With `COc1ccccc1Nc1nc2nonc2[nH]c1=O` the Potency was inconclusive: 15.8 µM [falling, single point]. For `O=C(Nn1cnnc1)c1cc(-c2cccc(Br)c2)nc2ccccc12`, the activity change, negative = inhibition was inconclusive: 6.53%. For `CCC(=O)Nc1nc2ccc3sc(C)nc3c2s1`, the Potency was inconclusive: 11.2 µM [falling, partial curve]. With `CCOc1ccc(CCNC(=O)C2CCCN(c3nn4c(=O)cc(C)nc4s3)C2)cc1OCC` (stereo not given) the activity change, negative = inhibition was inconclusive: -0.759%. With `COc1cccc(CNn2c(-c3cccc(C)c3)nc3ccccc3c2=O)c1` the Potency was inconclusive: 5.17 µM [rising, full curve, poor fit]. For `Cc1cc2c(=O)oc(-c3ccccc3Br)nc2s1`, the Potency was inconclusive: 35.5 µM [falling, single point]. For `N#C/C(=N\O)c1nc(-c2ccccc2)cs1`, the activity change, negative = inhibition was inconclusive: 10.7%. In the case of `O=C(NCCO)c1cc(-c2cc(C(=O)NCCO)c3ccccc3n2)nc2ccccc12`, the activity change, negative = inhibition is reported as inconclusive: 4.55%. In the case of `COc1ccc(-c2oc3ncnc(NCCCO)c3c2-c2ccc(OC)cc2)cc1`, the Potency is reported as inconclusive: 3.55 µM [falling, partial curve, poor fit]. In the case of `Cc1ccnc(NC(=O)c2ccc(COc3ccc(Cl)cc3)o2)c1`, the activity change, negative = inhibition is reported as inconclusive: -22.4%. In the case of `Cc1cc(-c2ccc(C)c(S(=O)(=O)NCC3CCN(Cc4cccc(F)c4)CC3)c2)on1`, the activity change, negative = inhibition is reported as “inactive”. For `S=C(Nc1ccccc1)N1CCN(C(=S)c2ccccc2)CC1`, the Potency was inconclusive: 35.5 µM [falling, partial curve, poor fit]. For `O=C(c1ccccc1Cc1ccccc1)N1CCN(S(=O)(=O)c2ccccc2Br)CC1`, the activity change, negative = inhibition was inconclusive: -18.4%. For `CCOC(=O)c1c(NC(=O)Cn2ccsc2=N)sc(C)c1C`, the Potency was inconclusive: 12.6 µM [falling, partial curve, poor fit]. With `O=C(CCCOc1ccc(Cl)cc1)N1CCCCC1` the activity change, negative = inhibition was inconclusive: 12.1%. In the case of `COc1cc2c(cc1OC)-c1cc(OCc3ccccc3Cl)nc(=O)n1CC2`, the Potency is reported as inconclusive: 3.55 µM [falling, full curve, poor fit]. With `O=C(/C=C/Nc1ccccc1F)c1ccc(Br)cc1` the Potency was inconclusive: 4.11 µM [falling, partial curve]. In the case of `CCC(=O)Nc1nnc(SCc2ccc(F)cc2)s1`, the activity change, negative = inhibition is reported as inconclusive: 19.9%. In the case of `Cc1noc(C)c1C(=O)Nc1nc2ccc(F)cc2s1`, the Potency is reported as inconclusive: 23.1 µM [falling, single point]. With `CC1=CC(C)(C)N(C(=O)CN2C(=O)c3ccccc3C2=O)c2ccc(C)cc21` the activity change, negative = inhibition was “inactive”. With `O=C(NC(=S)N1CCCCC1CO)C12CC3CC(CC(C3)C1)C2` (stereo not given) the activity change, negative = inhibition was inconclusive: 1.84%. With `N#Cc1nc(Cc2cccc3ccccc23)oc1NCc1ccc2c(c1)OCO2` the Potency was inconclusive: 14.1 µM [falling, partial curve, poor fit]. For `CC(C)CN(C(=O)COC(=O)c1cccnc1Cl)c1c(N)n(Cc2ccccc2)c(=O)[nH]c1=O`, the activity change, negative = inhibition was “inactive”. With `CN(CC(=O)Nc1ccccc1F)CC(=O)Nc1ccccc1Br` the Potency was inconclusive: 14.1 µM [falling, partial curve, poor fit]. In the case of `CCN(CC)c1ncnc2c1cnn2Cc1ccc(Cl)cc1`, the Potency is reported as inconclusive: 12.6 µM [falling, partial curve, poor fit]. For `CN(c1ccc(O)cc1)S(=O)(=O)c1ccc2ccccc2c1`, the activity change, negative = inhibition was inconclusive: -5.4%. For `Cc1ccc(C=Nc2ccc(N(C)C)cc2)o1`, the Potency was inconclusive: 8.91 µM [falling, partial curve]. For `Cc1cccc(NC(=S)N/N=C/c2cccn2Cc2ccc(F)cc2)c1`, the activity change, negative = inhibition was “inactive”. In the case of `CCOc1ccc(C(=O)Nc2ccc(N3CCN(C)CC3)cc2)cc1[N+](=O)[O-]`, the activity change, negative = inhibition is reported as “inactive”. With `Cc1ccc(-c2csc3ncn(/N=C/N(C)C)c(=O)c23)o1` the Potency was inconclusive: 0.116 µM [falling, full curve, poor fit].
